{
  "source": "patent US20250034520A1",
  "about": "“INCREASING DEVELOPMENTAL POTENTIAL OF HUMAN PREIMPLANTATION EMBRYOS BY REDUCING GENETIC INSTABILITY, ANEUPLOIDIES AND CHROMOSOMAL MOSAICISM” (THE TRUSTEES OF COLUMBIA UNIVERSITY IN THE CITY OF NEW YORK, priority 2022, published 2025)",
  "tested_on": "human zygotes",
  "test": "DNA damage foci immunostaining in human zygotes/parthenotes",
  "format": "cell-based",
  "details": "MRE11 inhibition with aphidicolin",
  "description": "Embryos, mouse and human, were cultured in Global Total (Life-Global) for the duration of the experiments and with added compounds as outlined below. Incubation in RNA polymerase inhibitors triptolide (1 mM) or alpha amanitin (20 mg/ml) was performed from the 2PN stage (day1) to day3 of human development. Incubation in aphidicolin was performed at 2 mM. […] Mirin was used at a concentration of 50 mM. Olaparib was used to inhibit PARP at a concentration of 10 mM. All experiments were conducted during incubation at 37° C. with 5% CO2 and 19-20% O2. Chemical stock solutions were prepared in DMSO at concentrations at least 1000× higher than the final concentration.\nArtificial activation of human MII oocytes was performed using two pulses of 2.7 kV/cm at 50 ms using ECFG21 (Nepagene) in fusion buffer consisting of 0.25 M d-sorbitol buffer containing 0.1 mM calcium acetate, 0.5 mM magnesium acetate, 0.5 mM HEPES, and 1 mg ml^−1 fatty-acid-free BSA as previously described (Tachibana et al., 2013). Thereafter, oocytes were incubated for 3.5-4 h in 10 mg/ml puromycin, followed by a wash step and following culture in Global total. […]\nEmbryos were imaged with confocal microscopy using a Zeiss LSM (LSM 710) at a magnification of 63× and the Zeiss Zen software. […] Cell numbers and staining foci numbers were counted manually. […]",
  "note": "At least one structure is not confirmed: it was looked up by name or label, or the drawing left a doubt.",
  "data": [
    {"compound": "N=C1NC(=O)/C(=C/c2ccc(O)cc2)S1", "note": "[mirin]", "values": [
      {"measurement": "number of γH2AX foci beyond aphidicolin incubation alone", "value": "not increased"}
    ]}
  ]
}
